The values are deposited in ChEMBL (CHEMBL3988442, “University of Dundee, Small-Polar-MMV Screening Library” (2021)).

Sequences of proteins named here, by UniProt entry; tags and fusion partners are left off. Residues count along the entry.
UniProt Q4DA54, 1-478: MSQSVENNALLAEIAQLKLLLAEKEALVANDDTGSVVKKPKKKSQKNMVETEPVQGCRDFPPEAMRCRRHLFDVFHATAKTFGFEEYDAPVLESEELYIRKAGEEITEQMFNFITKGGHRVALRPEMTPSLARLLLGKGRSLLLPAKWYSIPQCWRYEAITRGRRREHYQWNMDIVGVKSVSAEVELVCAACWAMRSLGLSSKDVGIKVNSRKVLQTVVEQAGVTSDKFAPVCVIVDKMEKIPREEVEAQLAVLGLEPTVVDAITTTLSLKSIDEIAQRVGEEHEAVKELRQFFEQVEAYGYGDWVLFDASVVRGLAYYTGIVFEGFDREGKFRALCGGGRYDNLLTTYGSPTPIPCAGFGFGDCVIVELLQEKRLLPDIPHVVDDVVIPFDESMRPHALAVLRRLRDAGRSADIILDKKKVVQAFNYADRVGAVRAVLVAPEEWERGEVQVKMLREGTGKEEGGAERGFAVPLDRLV
UniProt I6X8D2, whole entry: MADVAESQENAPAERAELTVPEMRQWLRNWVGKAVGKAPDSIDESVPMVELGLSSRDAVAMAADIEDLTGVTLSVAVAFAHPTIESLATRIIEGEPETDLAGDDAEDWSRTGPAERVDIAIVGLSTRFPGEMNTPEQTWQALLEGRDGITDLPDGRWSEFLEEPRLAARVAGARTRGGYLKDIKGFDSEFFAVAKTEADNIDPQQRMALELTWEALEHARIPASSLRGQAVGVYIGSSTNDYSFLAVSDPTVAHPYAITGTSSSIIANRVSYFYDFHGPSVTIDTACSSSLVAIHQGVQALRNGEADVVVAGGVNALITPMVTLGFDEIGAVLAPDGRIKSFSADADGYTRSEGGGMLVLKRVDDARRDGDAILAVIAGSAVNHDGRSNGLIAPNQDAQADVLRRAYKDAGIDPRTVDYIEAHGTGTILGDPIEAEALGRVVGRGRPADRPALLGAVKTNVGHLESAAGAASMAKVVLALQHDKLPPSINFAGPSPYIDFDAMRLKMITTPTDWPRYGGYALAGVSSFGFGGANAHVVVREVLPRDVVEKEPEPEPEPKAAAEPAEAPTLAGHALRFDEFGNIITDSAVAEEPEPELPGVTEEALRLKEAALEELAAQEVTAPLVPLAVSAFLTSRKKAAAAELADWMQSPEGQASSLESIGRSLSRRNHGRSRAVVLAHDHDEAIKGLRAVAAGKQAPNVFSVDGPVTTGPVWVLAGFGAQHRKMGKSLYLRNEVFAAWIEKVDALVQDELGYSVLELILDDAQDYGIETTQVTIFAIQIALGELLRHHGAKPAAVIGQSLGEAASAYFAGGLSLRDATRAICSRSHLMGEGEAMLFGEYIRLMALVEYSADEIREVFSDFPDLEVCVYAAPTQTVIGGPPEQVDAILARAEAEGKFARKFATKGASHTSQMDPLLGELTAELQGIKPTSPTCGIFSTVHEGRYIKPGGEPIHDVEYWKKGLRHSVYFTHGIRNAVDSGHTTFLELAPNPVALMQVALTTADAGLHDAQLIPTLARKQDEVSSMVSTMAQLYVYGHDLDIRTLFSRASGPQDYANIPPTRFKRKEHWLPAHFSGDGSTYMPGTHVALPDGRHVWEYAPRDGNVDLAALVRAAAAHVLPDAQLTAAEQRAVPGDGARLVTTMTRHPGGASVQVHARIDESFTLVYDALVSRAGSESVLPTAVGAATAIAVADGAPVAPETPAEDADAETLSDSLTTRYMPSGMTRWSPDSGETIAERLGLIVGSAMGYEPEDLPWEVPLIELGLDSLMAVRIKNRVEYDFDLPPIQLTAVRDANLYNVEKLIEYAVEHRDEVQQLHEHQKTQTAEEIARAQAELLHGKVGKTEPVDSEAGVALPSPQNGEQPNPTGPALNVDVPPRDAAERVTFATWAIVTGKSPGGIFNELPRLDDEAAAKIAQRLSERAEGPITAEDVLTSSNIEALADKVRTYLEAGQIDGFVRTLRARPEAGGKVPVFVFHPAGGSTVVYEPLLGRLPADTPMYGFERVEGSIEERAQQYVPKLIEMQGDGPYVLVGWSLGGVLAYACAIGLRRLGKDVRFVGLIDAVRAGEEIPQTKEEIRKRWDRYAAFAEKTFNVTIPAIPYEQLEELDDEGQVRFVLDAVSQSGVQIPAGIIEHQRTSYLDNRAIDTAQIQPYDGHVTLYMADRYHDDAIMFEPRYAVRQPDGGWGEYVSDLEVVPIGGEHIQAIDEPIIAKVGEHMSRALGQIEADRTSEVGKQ
UniProt P9WNZ1, whole entry: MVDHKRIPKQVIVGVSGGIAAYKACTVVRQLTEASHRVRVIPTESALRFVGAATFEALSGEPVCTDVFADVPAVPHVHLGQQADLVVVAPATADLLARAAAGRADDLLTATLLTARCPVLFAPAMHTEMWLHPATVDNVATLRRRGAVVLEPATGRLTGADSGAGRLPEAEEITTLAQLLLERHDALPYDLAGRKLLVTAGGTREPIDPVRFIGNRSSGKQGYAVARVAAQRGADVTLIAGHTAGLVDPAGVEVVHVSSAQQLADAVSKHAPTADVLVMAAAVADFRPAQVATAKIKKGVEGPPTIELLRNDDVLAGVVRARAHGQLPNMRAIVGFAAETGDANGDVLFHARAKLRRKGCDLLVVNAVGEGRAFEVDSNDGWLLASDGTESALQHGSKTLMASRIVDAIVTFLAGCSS
UniProt Q8IDJ8, 1-583: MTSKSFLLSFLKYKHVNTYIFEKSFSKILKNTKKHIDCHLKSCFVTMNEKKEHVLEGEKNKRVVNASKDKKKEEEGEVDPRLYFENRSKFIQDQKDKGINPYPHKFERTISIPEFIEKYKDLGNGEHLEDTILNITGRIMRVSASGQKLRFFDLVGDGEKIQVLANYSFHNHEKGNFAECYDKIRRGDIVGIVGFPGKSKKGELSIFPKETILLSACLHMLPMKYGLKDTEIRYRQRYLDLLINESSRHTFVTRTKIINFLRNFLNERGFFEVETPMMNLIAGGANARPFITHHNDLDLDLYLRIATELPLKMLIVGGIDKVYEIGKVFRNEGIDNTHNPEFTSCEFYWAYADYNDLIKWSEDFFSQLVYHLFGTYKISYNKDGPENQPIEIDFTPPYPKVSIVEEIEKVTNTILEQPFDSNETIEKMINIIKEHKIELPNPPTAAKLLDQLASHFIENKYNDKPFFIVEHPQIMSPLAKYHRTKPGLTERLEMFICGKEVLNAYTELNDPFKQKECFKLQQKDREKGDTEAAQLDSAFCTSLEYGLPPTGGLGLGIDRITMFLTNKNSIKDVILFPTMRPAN
UniProt P9WFT3, whole entry: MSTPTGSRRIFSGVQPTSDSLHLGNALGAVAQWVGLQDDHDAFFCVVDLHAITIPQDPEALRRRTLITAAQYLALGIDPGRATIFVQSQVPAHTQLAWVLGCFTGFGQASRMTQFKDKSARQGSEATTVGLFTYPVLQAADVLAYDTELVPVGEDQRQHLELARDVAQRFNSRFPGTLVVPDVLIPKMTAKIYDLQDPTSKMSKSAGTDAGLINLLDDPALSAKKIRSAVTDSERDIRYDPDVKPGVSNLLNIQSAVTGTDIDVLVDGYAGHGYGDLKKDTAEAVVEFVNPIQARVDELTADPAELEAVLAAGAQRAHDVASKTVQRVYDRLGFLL

A: 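Enzyme assay of histidyl-tRNA synthetase; the read-out is not stated. Target: Histidine-tRNA ligase, Trypanosoma cruzi CL Brener (UniProt Q4DA54). Compounds at 30 µM. Direction is inferred from retests: higher values go with stronger inhibition. Size under these conditions: about 69,000 compounds, about 31 of them at 50% or above in at least one test.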
B: 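Enzyme assay of the thioesterase domain of polyketide synthase 13; the read-out is not stated. Target: Polyketide synthase Pks13, Mycobacterium tuberculosis (UniProt I6X8D2). Concentration: 30 µM. Higher reads as stronger inhibition (inferred from which compounds were picked for retests). Of about 67,000 compounds tested this way, about 300 (0.46%) reached 50% or more in at least one test.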
C: 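Coenzyme A biosynthesis protein CoaBC, Mycobacterium tuberculosis (UniProt P9WNZ1). Enzyme assay of CoaBC with a phosphate dye (Biomol Green) read at 650 nm. Tested at 30 µM. Direction is inferred from only a few compounds that gave an IC50; most scored high, so higher reads as stronger inhibition. Most strong results did not repeat in a second test. Of about 67,000 compounds tested this way, about 40 (0.06%) reached 50% or more in at least one test.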
D: 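Cell assay of Leishmania donovani living inside macrophages; the read-out is not stated. Tested at 30 µM. The record gives no direction; compounds that gave an IC50 in retests scored well above the rest, so higher reads as stronger inhibition. Of about 69,000 compounds tested this way, about 1,000 (1.5%) reached 50% or more in at least one test.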
E: 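Lysine-tRNA ligase, Plasmodium falciparum 3D7 (UniProt Q8IDJ8). Enzyme assay of the cytosolic lysyl-tRNA synthetase in 384-well plates, read by luminescence. Tested at 30 µM. Higher reads as stronger inhibition, judged from the few compounds that gave an IC50. About 69,000 compounds were tested under these conditions; 0.071% (about 49) showed 50% or more at least once.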
F: 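Enzyme assay of tryptophanyl-tRNA synthetase; the read-out is not stated. Target: Tryptophan-tRNA ligase, Mycobacterium tuberculosis (UniProt P9WFT3). Compounds at 10 µM. Higher most likely means stronger inhibition; the record gives no direction and few retests gave an IC50. Size under these conditions: about 65,000 compounds, about 64 of them at 50% or above in at least one test.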

Results are given as percent effect. The record does not define 0% and 100%; most values in the screen are far below 50% and negative numbers occur (in some assays of this library far below -100). The compounds are a random part of those screened. Two or more numbers in one place are separate tests of the same structure; such repeats can differ widely. A dash means the value is not listed here; it may have been measured.

| structure | A | B | C | D | E | F |
|---|---|---|---|---|---|---|
| `CCOCCc1nc(-c2cnn3c(C)cc(C)nc23)no1` | 4.294 | -0.8632 | 1.665 | -1.448 | -2.091 | -6.812 |
| `COc1ccccc1-c1cc(C(=O)N(C)C)nc2c1cnn2C` | 6.509 | -14.58 | -2.895 | 21.11 | 0.4435 | -9.421 |
| `CC(C)c1nn(C)c(Cl)c1CNCC(O)c1cccc(F)c1.Cl` (configuration not stated) | - | - | - | 34.96 | - | - |
| `CCN(CC)S(=O)(=O)NCC1Cc2ccccc2O1` (configuration not stated) | 6.077 | -47.46 | 0.8917 | 3.286 | 0.4025 | -3.17 |
| `O=C(NCCOc1cccc(Cl)c1)C1CC(=O)N(CC2CC2)C1` (configuration not stated) | -12.12 | -20.44 | -10.52 | -18.86 | -6.415 | 2.437 |
| `CCS(=O)(=O)N1CCCC2(COCCN(c3nnc(C)o3)C2)C1` (configuration not stated) | -1.149 | -24.14 | 5.499 | - | -4.951 | -4.148 |
| `O=C(Cc1cccc(O)c1)N1CCC2(CC1)c1ccccc1CC2O` (configuration not stated) | 0.5025 | -11.08 | -0.8444 | -26.62 | 1.262 | 1.232 |
| `CCCC1COCCN1Cc1ccc(S(=O)(=O)NC)cc1` (configuration not stated) | -0.5291 | -17.15 | 2.982 | 2.527 | -2.814 | 8.132 |
| `CCC(=O)N1CCC(O)(c2ncc(OC)nc2OC)CC1` | 5.376 | -5.002 | 3.534 | 3.356 | 9.113 | 3.75 |
| `Cc1nc(C(=O)N2CCc3[nH]nc(Nc4ccccc4)c3C2)co1` | 2.273 | 6.855 | 3.699 | -2.747 | 2.844 | -2.902 |
| `CC(C)c1nc(C2CCCN(Cc3nnc(C4CC4)o3)C2)no1` (configuration not stated) | 1.887 | -8.475 | 4.042 | -36.83 | -0.01196 | -2.618 |
| `Cn1cc(CN2CCCC23CCN(C(=O)c2ccccn2)CC3)cn1` | -0.8264 | -3.503 | 5.882 | - | -6.822 | -1.744 |
| `CN(C)C(=O)N1CCN(C(=O)c2ccn3cncc3c2)CC1` | 10.5 | -23.98 | -3.883 | 17.32 | 1.799 | -1.412 |
| `CC(=O)N1CCCC(C(=O)N2Cc3nc(C)n(C)c(=O)c3C2)C1` (configuration not stated) | 2.128 | -23.3 | 8.46 | 34.12 | 0.03572 | -0.9372 |
| `O=C1CC(c2ccccc2)C2(CCN(C(=O)c3ccncc3F)CC2)N1` (configuration not stated) | -15.76 | 11.32 | -1.523 | - | -2.16 | 0.5761 |
| `CCN(CC)C(=O)Cn1cc(C(=O)NCCc2scnc2C)nn1` | -0.5435 | -86.08 | 6.198 | 5.332 | -1.029 | -1.064 |
| `CC(=O)N1CCO[C@@H]2CN(S(=O)(=O)C3CC3)CC[C@@H]2C1` | 7.407 | -5.134 | 5.185 | - | 2.763 | - |
| `O=C1N(Cc2cccc(Cl)c2)CCC12CCCNC2` (configuration not stated) | 6.796 | -23.94 | 5.019 | - | 7.887 | -6.541 |
| `COCC(NC(=O)c1ccc(O)nc1)c1ccc(C)o1` (configuration not stated) | 3.784 | -16.24 | -5.128 | -12.61 | 8.972 | 0.3569 |
| `Cc1ccccc1-c1noc(CN2CCC(c3ccn[nH]3)CC2)n1` | 6.186 | -1.142 | -0.7335 | -17.93 | -4.54 | -1.801 |
| `CSc1ccc(-c2nc(CN3CCC(NC(C)=O)CC3)c(C)o2)cc1` | 0 | -0.6048 | 4.421 | 13.21 | 0.6176 | -3.133 |
| `O=C(O)C(F)(F)F.O=C(O)C(F)(F)F.[H][C@]12CCN(Cc3ccccn3)C[C@@]1([H])OCCN(Cc1csc(C)n1)C2` | - | - | - | 21.65 | - | - |
| `Cn1nc(CN2CCC(c3ccncc3)CC2)c2c(Cl)cccc21` | 4.082 | -16.57 | 5.119 | 19.21 | -2.37 | 1.407 |
| `O=C(O)C(F)(F)F.O=C1CCCN1CC1CN(CC2CCOCC2)Cc2nccn2C1` (configuration not stated) | - | - | - | 30.78 & 10.04 | - | - |
| `CN(C)CC1CN(Cc2coc(-c3ccccc3)n2)CCO1` (configuration not stated) | -1.127 | 1.701 | 3.944 | 24.56 | 1.379 | 3.45 |
| `[H][C@@]12CN(C3CCOCC3)C[C@]1([H])N(CCc1cccc(Cl)c1)C(=O)O2` | - | - | - | 6.488 | - | - |
| `COc1ccc(OC)c(-n2c(COC(C)C)n[nH]c2=O)c1` | 1.622 | -40.05 | -3.846 | 24.21 | 3.307 | 1.784 |
| `COc1cc(-c2n[nH]c(CN)n2)cc(OC)c1OC` | 13.86 | -45.68 | -0.241 | -25.89 | 1.098 | -1.748 |
| `O=C(CCc1nnc2ccccn2c1=O)NCc1ccc2c(c1)OCO2` | 9.901 | -6.495 | 1.928 | -18.39 | 0 | 0.06473 |
| `O=C(Nc1cccnc1)c1noc2c1CN(S(=O)(=O)C1CC1)CC2` | 0.9709 | -15.21 | 1.781 | 4.231 | 2.868 | -5.093 |
| `Cc1nnsc1CN1C[C@@H]2CC[C@H](C1)N(Cc1ccccc1)C2` | 7.595 | -5.516 | -0.2404 | - | 2.779 | 0.4566 |
| `Cc1ncc(CNC(=O)Nc2cc(C(F)(F)F)c[nH]c2=O)s1` | 5.691 | -5.88 | -1.688 | -1.428 | 2.849 | -1.327 |
| `Cc1ccc(-c2nnc(CN3CCCC(Cn4cncn4)C3)o2)cc1` (configuration not stated) | 6.745 | -12.86 | 5.526 | 21.86 | 0.5555 | -2.273 |
| `O=S1(=O)COCCN1Cc1cccc(Cl)c1` | 1.667 | -12.86 | -6.183 | 26.86 | -5.088 | -0.0774 |
| `CCC(C)(C)C(=O)N1CCN(C2=NCC(C)S2)CC1` (configuration not stated) | 8.387 | -10.52 | 3.865 | 15.88 | 1.085 | -8.545 |
| `CS(=O)(=O)CCNC(=O)N1CC2(CCCC2)c2ccccc21` | 7.182 | -33.99 | 0 | 0.5956 | 4.969 | -0.3096 |
| `CN(Cc1noc(C2CC2)n1)C1CCN(Cc2ccncc2)C1` (configuration not stated) | -8.397 | -14.43 | 5.699 | 24.76 | 0.7736 | -2.895 |
| `Cc1cnn(CC(C)NCc2ccccc2OCc2cccnc2)c1` (configuration not stated) | 6.761 | -6.163 | 1.399 | 36.73 | 0.5853 | -2.428 |
| `Cc1ccc(C2CCCN(S(C)(=O)=O)C2)nc1` (configuration not stated) | 4.981 | -2.444 | 1.675 | 15.4 | 1.11 | 0.3906 |
| `COCCC(=O)N1CC[C@@H](N2CCOCC2)[C@@H]1Cc1ccccc1` | 2.479 | -27.3 | 5.042 | - | 3.51 | 0.5231 |
| `Cc1ccc(C(=O)N2CCC3(CCN3Cc3ccc(F)cc3)C2)cn1.O=C(O)C(F)(F)F` (configuration not stated) | - | - | - | 10.58 | - | - |
| `Cc1cc(-c2cnc(NCc3ccncc3)nc2C(C)C)on1` | -2.128 | -5.959 | 1.471 | 6.283 | 4.747 | - |
| `CCN(Cc1ccc2c(c1)OCO2)C(=O)CCc1c(C)nc(C)[nH]c1=O` | 2.662 | 9.911 | -0.266 | 8.279 | -0.1334 | -1.101 |
| `CC(C)(NCCCOc1ccc(C#N)cc1)c1nccs1` | 6.878 | -16.19 | 4.573 | -6.323 | 3.913 | 1.34 |
| `O=C(O)C(F)(F)F.O=C(O)C(F)(F)F.c1cc(CN2Cc3nccn3CC(Cn3cncn3)C2)ccn1` (configuration not stated) | - | - | - | -6.922 | - | - |
| `CCN1N=C(C(=O)N2CCCC(c3nc(C)cs3)C2)CCC1=O` (configuration not stated) | 2.874 | -8.216 | 2.452 | 10.88 | 2.23 | 4.674 |
| `Cc1cnn(CCNCc2c(C)nn(CCO)c2C)c1` | 4.39 | 14.77 | 2.384 | 6.525 | 2.528 | -5.126 |
| `COCC1CN(Cc2ccoc2)Cc2cn(C)nc21` (configuration not stated) | 1.149 | -23.58 | 1.426 | 22.93 | 3.514 | -2.885 |
| `CN(C)C(=O)CN(C)C(=O)c1cccn1CCc1ccccc1` | 7.229 | 3.316 | 0.9901 | 19.47 | 3.927 | -0.899 |
| `CCN(C(=O)C1Cc2cc(Cl)ccc2O1)C1CC1` (configuration not stated) | 4.663 | -16.61 | -0.1122 | -8.021 | 5.552 | 3.917 |
| `[H][C@@]12CN(Cc3ccccc3F)C[C@]1([H])OCCN2c1ncccn1` | - | - | - | 15.52 | - | - |
| `COc1nc2ccn(CCc3scnc3C)c(=O)c2cc1C#N` | 4.082 | -21.61 | 11.02 | 14.26 | 5.755 | 1.343 |
| `Cc1nc(CN2CCCN(Cc3nc4c(F)cccc4[nH]3)CC2)no1` | 9.901 | -1.783 | -0.9709 | 9.805 | 3.451 | -2.448 |

Some entries from above, unchanged:

{"structure": "CC(=O)N1CCO[C@@H]2CN(S(=O)(=O)C3CC3)CC[C@@H]2C1", "A": 7.407, "B": -5.134, "C": 5.185, "E": 2.763}
{"structure": "O=S1(=O)COCCN1Cc1cccc(Cl)c1", "A": 1.667, "B": -12.86, "C": -6.183, "D": 26.86, "E": -5.088, "F": -0.0774}
{"structure": "Cc1ccccc1-c1noc(CN2CCC(c3ccn[nH]3)CC2)n1", "A": 6.186, "B": -1.142, "C": -0.7335, "D": -17.93, "E": -4.54, "F": -1.801}
{"structure": "Cc1ccc(C(=O)N2CCC3(CCN3Cc3ccc(F)cc3)C2)cn1.O=C(O)C(F)(F)F", "stereo": "configuration not stated", "D": 10.58}
{"structure": "CN(C)C(=O)CN(C)C(=O)c1cccn1CCc1ccccc1", "A": 7.229, "B": 3.316, "C": 0.9901, "D": 19.47, "E": 3.927, "F": -0.899}